Reference: article PMC7763843, “Cytochrome P450 Expression and Chemical Metabolic Activity before Full Liver Development in Zebrafish” (Pharmaceuticals, 2020)
Where a name gives a salt, the structure may show the parent alone.

Experiment: Measured concentrations of test compounds in test solutions (Cw)
Conditions: test solution, exposure up to 120 hpf

| SMILES | Time-weighted mean measured Cw as % of the nominal concentration [%] | Time-weighted mean of measured concentration (Cw) [mg/L] |
| --- | --- | --- |
| Cn1c(=O)c2c(ncn2C)n(C)c1=O [caffeine] | 102 | 10.2 |
| O=C(O)Cc1ccccc1Nc1c(Cl)cccc1Cl [diclofenac, diclofenac sodium salt] | 107 | 3.41 |
| C[C@]12CC[C@H]3[C@@H](CCC4=CC(=O)CC[C@@]43C)[C@@H]1CC[C@@H]2O [testosterone] | 93.3 | 2.80 |
